From patent US4435391A, “Dibenzoxazepine derivative, and pharmaceutical composition comprising the same” (Chugai Seiyaku Kabushiki Kaisha, priority 1980, dated 1984)
At least one read-out could not be matched to a standard name with certainty.

Tests used:
[1] = test system: PGI2 (pig aortic microsomes and platelets of SD strain rats); assay: PGI2 production (as 6-keto-prostaglandin F1α) from arachidonic acid by aortic microsomes plus platelets (Experiment 4); assay type: biochemical; conditions: Table 4 (own numbering); compound solution 5×10^-4 M; 3 min at 23° C.; relative to samples without test compound; 500 µM
[2] = test system: TXA2 (pig aortic microsomes and platelets of SD strain rats); assay: TXA2 production (as thromboxane B2) from arachidonic acid by aortic microsomes plus platelets (Experiment 4); assay type: biochemical; conditions: Table 4 (own numbering); compound solution 5×10^-4 M; 3 min at 23° C.; relative to samples without test compound; 500 µM

SMILES	Percent Relative Production of PGI2 [1] [%]	Percent Relative Production of TXA2 [2] [%]
CC(=O)Oc1ccccc1C(=O)O [aspirin, reference compound]	0.1	0.1
c1c[nH]cn1 [imidazole, reference compound]	3.0	0.25
